Data as given in PubChem BioAssay AID1508597 (Cure First, 2020)
Shown is a random part of the about 2,100 reagents, in one setting of the screen. 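Calls flag viability under 80% in either arm, not effects specific to rucaparib; the reference for percent is not stated.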 Some reagents were tested in more than one well and are listed for each. No sequences are given here. Not stated in the record: the 100% reference.

Screen: 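Knock-downs altering ovarian cancer cell survival with or without PARP inhibitor rucaparib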 (primary screen)
Cells: human ovarian carcinoma lines grown from tumours: OCI-P5x (papillary serous) and OCI-C5x (clear cell)
Reagent: siRNA pool against human genes, 1.25 pmol siRNA per well
Timing: 72 h or 96 h, depending on the cell culture
Challenge: rucaparib 20 µM (about IC30) or vehicle, present until read-out
Rucaparib or vehicle: Vehicle
Cell line: OCI-P5x (serous)
Measurement: 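Luminescent ATP-based viability assay read 72 or 96 h after transfection, depending on culture, given as normalised percent viability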
Reading the numbers: viability, normalised: higher = more viable cells remaining
Rule for the call: 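a well counts as a hit if its normalised viability is under 80 percent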
Calls: active = viability under 80%; inactive = viability 80% or more

| gene symbol | technical replicate | viability, normalised (%) | call |
| --- | --- | --- | --- |
| MSH5 (GeneID 4439) | 1 | 87.9 | inactive |
| MSH5 (GeneID 4439) | 2 | 85.3 | inactive |
| MSH5 (GeneID 4439) | 3 | 88.5 | inactive |
| CEBPG (GeneID 1054) | 1 | 74.1 | active |
| CEBPG (GeneID 1054) | 2 | 73.6 | active |
| CEBPG (GeneID 1054) | 3 | 77.3 | active |
| DUT (GeneID 1854) | 1 | 53.5 | active |
| DUT (GeneID 1854) | 2 | 72.7 | active |
| DUT (GeneID 1854) | 3 | 45.9 | active |
| POLR2K (GeneID 5440) | 1 | 81 | inactive |
| POLR2K (GeneID 5440) | 2 | 87.9 | inactive |
| POLR2K (GeneID 5440) | 3 | 101 | inactive |
| H4C8 (GeneID 8365) | 1 | 75.1 | active |
| H4C8 (GeneID 8365) | 2 | 85.4 | inactive |
| H4C8 (GeneID 8365) | 3 | 76.9 | active |
| PSMC2 (GeneID 5701) | 1 | 41.3 | active |
| PSMC2 (GeneID 5701) | 2 | 37.9 | active |
| PSMC2 (GeneID 5701) | 3 | 50.1 | active |
| PRMT9 (GeneID 90826) | 1 | 48.6 | active |
| PRMT9 (GeneID 90826) | 2 | 38.2 | active |
| PRMT9 (GeneID 90826) | 3 | 131 | inactive |
| PFKM (GeneID 5213) | 1 | 94.9 | inactive |
| PFKM (GeneID 5213) | 2 | 103 | inactive |
| PFKM (GeneID 5213) | 3 | 105 | inactive |
| MAP4K5 (GeneID 11183) | 1 | 91.5 | inactive |
| MAP4K5 (GeneID 11183) | 2 | 85 | inactive |
| MAP4K5 (GeneID 11183) | 3 | 86.8 | inactive |
| DOT1L (GeneID 84444) | 1 | 65.2 | active |
| DOT1L (GeneID 84444) | 2 | 67.3 | active |
| DOT1L (GeneID 84444) | 3 | 80.6 | inactive |
| SETD2 (GeneID 29072) | 1 | 62.4 | active |
| SETD2 (GeneID 29072) | 2 | 72.3 | active |
| SETD2 (GeneID 29072) | 3 | 83.7 | inactive |
| CCNK (GeneID 8812) | 1 | 63 | active |
| CCNK (GeneID 8812) | 2 | 60.1 | active |
| CCNK (GeneID 8812) | 3 | 54 | active |
| ACTR8 (GeneID 93973) | 1 | 60.4 | active |
| ACTR8 (GeneID 93973) | 2 | 42.4 | active |
| ACTR8 (GeneID 93973) | 3 | 113 | inactive |
| EDF1 (GeneID 8721) | 1 | 64.6 | active |
| EDF1 (GeneID 8721) | 2 | 63.9 | active |
| EDF1 (GeneID 8721) | 3 | 96.2 | inactive |
| CA14 (GeneID 23632) | 1 | 54.6 | active |
| CA14 (GeneID 23632) | 2 | 59 | active |
| CA14 (GeneID 23632) | 3 | 55.9 | active |

Individual results from the list:
For “viability, normalised (%)”, H4C8 (GeneID 8365), technical replicate 2 shows 85.4
DOT1L (GeneID 84444), technical replicate 3, viability, normalised (%): 80.6
ACTR8 (GeneID 93973), technical replicate 1, call: active
DUT (GeneID 1854), technical replicate 1, viability, normalised (%) → 53.5
Result of DUT (GeneID 1854), technical replicate 2 under “call”: active
H4C8 (GeneID 8365), technical replicate 1, call: active

The list goes on.
| gene symbol | technical replicate | viability, normalised (%) | call |
| --- | --- | --- | --- |
| RAD54L2 (GeneID 23132) | 1 | 27.3 | active |
| RAD54L2 (GeneID 23132) | 2 | 51.3 | active |
| RAD54L2 (GeneID 23132) | 3 | 59 | active |
| BRIP1 (GeneID 83990) | 1 | 92.1 | inactive |
| BRIP1 (GeneID 83990) | 1 | 56.3 | active |
| BRIP1 (GeneID 83990) | 2 | 76.5 | active |
| BRIP1 (GeneID 83990) | 2 | 89.7 | inactive |
| BRIP1 (GeneID 83990) | 3 | 83.8 | inactive |
| BRIP1 (GeneID 83990) | 3 | 61.7 | active |
| MAP3K6 (GeneID 9064) | 1 | 117 | inactive |
| MAP3K6 (GeneID 9064) | 2 | 95.6 | inactive |
| MAP3K6 (GeneID 9064) | 3 | 97 | inactive |
| ACTR6 (GeneID 64431) | 1 | 49.9 | active |
| ACTR6 (GeneID 64431) | 2 | 53.5 | active |
| ACTR6 (GeneID 64431) | 3 | 59 | active |
| TCF19 (GeneID 6941) | 1 | 91.1 | inactive |
| TCF19 (GeneID 6941) | 2 | 57 | active |
| TCF19 (GeneID 6941) | 3 | 69.9 | active |
| F10 (GeneID 2159) | 1 | 59.9 | active |
| F10 (GeneID 2159) | 2 | 62.2 | active |
| F10 (GeneID 2159) | 3 | 61.6 | active |
| AFF3 (GeneID 3899) | 1 | 53.5 | active |
| AFF3 (GeneID 3899) | 2 | 59.5 | active |
| AFF3 (GeneID 3899) | 3 | 77.5 | active |
| CDK14 (GeneID 5218) | 1 | 88.3 | inactive |
| CDK14 (GeneID 5218) | 2 | 72.9 | active |
| CDK14 (GeneID 5218) | 3 | 74.7 | active |
| POLG2 (GeneID 11232) | 1 | 134 | inactive |
| POLG2 (GeneID 11232) | 2 | 137 | inactive |
| POLG2 (GeneID 11232) | 3 | 123 | inactive |
